The assay has as its target GmMYB29A1 (Gal4BD-GmMYB29A1) (soybean (Glycine max)) (UniProt Q9S7E3). As to the kind of experiment: two-hybrid; prey pAD-GmWRKY72 (Gal4AD) and baits as Gal4BD fusions co-transformed into yeast strain PJ69-4a; growth on SD-His-Leu-Trp medium with 40 mM 3AT; pAD empty vector as negative control.

Data on one substance can be found in article PMC11548433.

These are yes or no findings as the source states them, for the method shown. A result given as binding can be weak or reduced; the word gives no strength.

Turning to “GmWRKY72 (Gal4AD-GmWRKY72) (from UniProt K7MKV5)”, the binding entry is on record as “binds”.
